Assay results: patent US20050070495
The exact form of at least one protein or probe is not confirmed.

Molecular target: MethA p53 (mutant p53) (UniProt P02340)
Experiment: EMSA
Settings: strand separation caused by mut p53, RT, label: 32P

Sequence	binding result (inhibited by PAb421 and PAb240, 10 mM hepes pH 7.8, 50 mM KCl, 5 mM MgCl2, 1 mM EDTA, poly dI:dC)	binding result (same buffer)
AGTGTCTTTAATTTCTAATATATTTAGAAAACTGC (double strand) [MARI IgH enhancer 3'-flanking]	binds	–
TTTTAACAATAATAAATTAAGTTTAAAATATTTGCG (double strand) [MARII IgH enhancer 5'-flanking]	–	binds
